From patent US8404711B2, “5-HT4 receptor agonist compounds for treatment of cognitive disorders” (priority 2009, dated 2013)
Some entries share one result that the patent states for a list of compounds. Some ranges recur; such a range may be that of the whole group of compounds.

System: scopolamine-induced cognitive impairment (rat Morris water maze)
Assay: rat Morris water maze model, scopolamine-induced cognitive impairment
Assay type: in vivo
Settings: 0.1 mg/kg i.p. plus scopolamine 0.5 mg/kg
Experimental: Adult, male Sprague-Dawley rats (body weight range 275-400 g) were handled by the investigator for approximately 5 minutes one day prior to each study. […] A clear Perspex® platform was located in a fixed position 1 cm below the surface of the water, and 34 cm from the wall of the tank. Four visual cues (A4-sized pictures of different black and white symbols) were equally spaced on the wall of the tank, just above the water surface. Black curtains were placed around the tank and white noise was generated throughout the test. Each rat was released into the water, facing the tank wall, at a designated starting point (i.e., at the north side of the tank), and allowed 60 seconds to locate the submerged platform after each placement. The escape latency (in seconds) between release of the rat into the water and its locating the platform was recorded automatically by means of a video camera (San Diego Instrument, CA) and tracking software (SMART software, San Diego Instrument, CA). […] The rats were allowed to remain on the platform for 30 seconds to observe the external visual cues and pair them with the relative position of the platform. […] The number of crossings of the previous platform location and the time spent by the rat in each quadrant were recorded. […]

## COC(=O)N1CCC(CN2CCC(CNC(=O)c3cccc4[nH]c(C(C)C)nc34)CC2)CC1 [Compound 2, 4-(4-{[(2-isopropyl-1H-benzoimidazole-4-carbonyl)amino]methyl}-piperidin-1-ylmethyl)piperidine-1-carboxylic acid methyl ester]
  reversal of scopolamine-induced impairment on day 3: 50-60%
